From PubChem BioAssay record AID1224904 (Broad Institute, 2016).

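293T-iDUX4 cells carrying a ZSCAN4-driven Gaussia luciferase and a tet-on Italica luciferase control; the gap between the two luminescence signals is read after 24 h.
The test concentration is not given here.
Percent difference between the Gaussia and Italica channels; more negative values mean more selective suppression of the DUX4 reporter, and higher values mean less activity.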

Values are in %.
The controls that fix the scale are not given here.
Common to all entries: measured here: selective DUX4 reporter inhibition.
Part of the compounds only, not a random draw; the main read-out is not listed here.

compound,Gaussia minus Italica difference (%)
COc1ccc2c3c([nH]c2c1)[C@H](CO)N(Cc1ccccc1Cl)CC31CN(C(=O)C2CC2)C1,-16.72
O=C(c1cccc(F)c1)N1CCCCN2[C@@H](CO)[C@@H](c3ccc(-c4ccccc4)cc3)[C@@H]2C1,-15.58
COc1cc(CN2CC3(CN(S(=O)(=O)c4cccc(F)c4)C3)c3c([nH]c4cc(OC)ccc34)[C@@H]2CO)cc(OC)c1,-15.51
CCS(=O)(=O)N1CC2(CN(Cc3ccc(F)cc3)[C@@H](CO)c3c2c2ccc(OC)cc2n3C)C1,-22.33
CCC(=O)N1C[C@@H](C)[C@H](OC)CN(C)C(=O)c2cc(NC(=O)Nc3ccc(Cl)cc3)ccc2OC[C@H]1C,-4.073
CCNC(=O)[C@@H]1[C@@H](CO)[C@@H]2Cn3c(ccc(-c4ccccc4F)c3=O)[C@@H]2N1CC1CC1,-11.78
Cc1cccc(S(=O)(=O)N2CCCCN3[C@H](CO)[C@H](c4ccc(C#C[C@@H](C)O)cc4)[C@@H]3C2)c1,-12.71
CC(=O)N1CC2(C1)[C@H](c1ccc(-c3cccc(F)c3)cc1)[C@H](CO)N2CC1CCOCC1,-3.608
O=C(Nc1cc(F)ccc1F)N1CC(=O)N2[C@@H](CO)[C@@H](c3ccc(C#CC4CCCCC4)cc3)[C@@H]2C1,3.113
C[C@@H]1CN([C@H](C)CO)C(=O)c2c(c3ccccc3n2C)-c2ccccc2CO[C@@H]1CN(C)C,-5.327
O=C(Nc1cc(F)ccc1F)N1[C@@H]2CNC[C@H]1C2c1ccc(-c2cccnc2)cc1 (stereo not given in full),-11.58
O=C(Cc1ccccc1)N1CC[C@@H]2[C@H](CO)Nc3ccc(-c4ccc(F)cc4)cc3[C@@H]21,-3.906
COc1ccc(-c2ccc(C3[C@@H]4CN(S(=O)(=O)c5cccc(C)c5)C[C@H]3N4)cc2)cc1 (stereo not given in full),-20.08
C/C=C/c1ccc([C@@H]2[C@H](CO)N(CC3CCCC3)C23CN(S(=O)(=O)CC)C3)cc1,-11.86
CO[C@@H]1CN(C)C(=O)c2ccc(NC(=O)c3nc4ccccc4s3)cc2OC[C@@H](C)N(Cc2cccnc2)C[C@@H]1C,-10.37
O=C(C[C@@H]1C[C@H]2c3cc(NC(=O)C4CCC4)ccc3O[C@H]2[C@H](CO)O1)NCc1ccccc1F,-13.16
C/C=C/c1ccc([C@@H]2[C@@H](CO)N(CC3CCCC3)C23CN(S(=O)(=O)CC)C3)cc1,-4.116
C[C@H]1CN([C@@H](C)CO)C(=O)c2c(c3ccccc3n2C)-c2ccccc2CO[C@H]1CN(C)S(=O)(=O)c1ccccc1F,1.314
O=C(C[C@@H]1C[C@H]2c3cc(NC(=O)Nc4ccccc4)ccc3O[C@H]2[C@H](CO)O1)NCc1ccccc1,-11.12
CO[C@@H](C(=O)N(C)C[C@@H]1OCc2ccccc2-c2c(n(C)c3ccccc23)C(=O)N([C@H](C)CO)C[C@H]1C)c1ccccc1,-8.497
C[C@@H]1CN([C@H](C)CO)C(=O)c2c(c3ccccc3n2C)-c2ccccc2CO[C@@H]1CN(C)S(=O)(=O)c1ccc(Cl)cc1,5.964
COc1ccc(-c2ccc3c(c2)[C@H]2[C@H](CCN2C(=O)Nc2ccccc2OC)[C@H](CO)N3C)cc1,15.24
O=C(c1ccc2c(c1)OCO2)N1CC(=O)N2[C@H](C1)[C@@H](c1ccc(C#CCC3CCCC3)cc1)[C@@H]2CO,12.48
C[C@H](C(=O)N(C)C[C@@H]1OCc2ccccc2-c2c(n(C)c3ccccc23)C(=O)N([C@H](C)CO)C[C@@H]1C)c1ccccc1,-1.286
O=C(C[C@@H]1C[C@H]2c3cc(NC(=O)Nc4ccccc4F)ccc3O[C@H]2[C@H](CO)O1)NCCc1ccccc1,-23.73
C/C=C/c1ccc(C2[C@@H]3CN(C(=O)Nc4ccc(C(F)(F)F)cc4)C[C@H]2N3)cc1 (stereo not given in full),-17.44
COc1ccc(NC(=O)N2CC(=O)N3[C@H](C2)[C@@H](c2ccc(/C=C/c4ccccc4)cc2)[C@@H]3CO)cc1,-1.274
COc1cccc(-c2ccc3c(c2)[C@H]2[C@H](CCN2C(=O)Cc2ccncc2)[C@H](CO)N3)c1,-17.92
O=C(C[C@@H]1C[C@H]2c3cc(NC(=O)Nc4ccccc4F)ccc3O[C@H]2[C@H](CO)O1)NCc1ccc2c(c1)OCO2,-24.37
COc1ccc(S(=O)(=O)N2C[C@@H](O)COC[C@@H]3O[C@H](CC(=O)NCc4ccc(Cl)c(Cl)c4)CC[C@H]32)cc1,-6.788
COc1ccc(NC(=O)Nc2ccc3c(c2)[C@@H]2C[C@@H](CC(=O)N4CCc5ccccc5C4)O[C@H](CO)[C@@H]2O3)cc1,-9.564
O=C(NC1CCCCC1)N1CC(=O)N2[C@H](C1)[C@H](c1ccc(-c3cccc(F)c3)cc1)[C@@H]2CO,0.1765
O=C(C1CCC1)N1C[C@@H]2N[C@H](C1)C2c1ccc(/C=C/c2ccccc2)cc1 (stereo not given in full),-17.81
CCS(=O)(=O)N1CCC2(CC1)CN(Cc1ccccc1F)[C@H](CO)c1c2c2ccc(OC)cc2n1C,-16.88
O=C(C[C@H]1CC[C@@H]2[C@H](COC[C@H](O)CN2Cc2cc(F)ccc2F)O1)N1CCc2ccccc2C1,-11.09
CO[C@@H]1CN(C)C(=O)c2ccc(NC(=O)Nc3cccc(Cl)c3)cc2OC[C@@H](C)NC[C@H]1C,-0.6925
C[C@H](CO)N1C[C@H](C)[C@@H](CN(C)Cc2ccc(F)cc2)OCc2ccccc2-c2c(n(C)c3ccccc23)C1=O,-22.86
COc1ccc2c3c(n(C)c2c1)[C@@H](CO)N(Cc1ccccc1F)CC31CN(CC2CC2)C1,-7.222
Cc1ccccc1-c1ccc([C@H]2[C@@H](CO)N3CCCCN(C(=O)Cc4ccccn4)C[C@H]23)cc1,-6.843
O=S(=O)(c1ccccc1F)N1CC[C@@H]2[C@H]1c1cc(-c3cccc(F)c3)ccc1N[C@@H]2CO,-1.352
CN(C)C(=O)c1cccc(-c2ccc3c(c2)[C@H]2[C@H](CCN2S(=O)(=O)c2ccccc2)[C@@H](CO)N3)c1,25.35
COc1ccc2c3c([nH]c2c1)[C@@H](CO)N(Cc1ccccc1)CC31CCN(S(C)(=O)=O)CC1,-19.15
COc1ccc2c3c([nH]c2c1)[C@@H](CO)N(Cc1ccccc1OC)CC31CCN(C(C)=O)CC1,-13.29
COc1ccccc1-c1ccc2c(c1)[C@H]1[C@H](CCN1C(=O)C1CCC1)[C@H](CO)N2,14.77
O=C(C[C@@H]1CC[C@@H]2[C@H](COC[C@H](O)CN2Cc2ccc(C(F)(F)F)cc2)O1)NCCc1ccccc1,-4.725
C[C@@H]1CN([C@@H](C)CO)S(=O)(=O)c2ccc(C#CC(C)(C)O)cc2O[C@H]1CN(C)Cc1ccc(F)cc1,6.811
C[C@H]1CN([C@@H](C)CO)C(=O)c2c(c3ccccc3n2C)-c2ccccc2CO[C@@H]1CN(C)C(=O)CCC(F)(F)F,-2.953
COCC(=O)Nc1ccc2c(c1)[C@H]1C[C@@H](CC(=O)NCc3ccc(-c4ccccc4)cc3)O[C@H](CO)[C@H]1O2,-7.914
O=C(C[C@@H]1C[C@@H]2c3cc(NS(=O)(=O)c4ccc(F)cc4)ccc3O[C@@H]2[C@@H](CO)O1)NCc1ccc(Cl)cc1,-10.88
N#C[C@@H]1[C@@H](c2ccccc2C2=CCCC2)[C@@H](CO)N1C(=O)NC1CCCCC1,-19.87
COc1cccc(CN(C)C[C@H]2OCc3ccccc3-c3c(n(C)c4ccccc34)C(=O)N([C@@H](C)CO)C[C@H]2C)c1,-3.031
OC[C@@H]1[C@@H](c2ccc(-c3ccc(F)cc3)cc2)[C@@H]2CN(CCC(F)(F)F)CCCCN12,-18.16
Cc1ccccc1S(=O)(=O)N1CC[C@H]2[C@H](CO)Nc3ccc(-c4cccc(C#N)c4)cc3[C@H]21,14.71
Cn1cnc(S(=O)(=O)N2C[C@@H]3N[C@H](C2)C3c2ccc(-c3ccccc3F)cc2)c1 (stereo not given in full),6.74
O=C(c1cccnc1)N1CC(=O)N2[C@@H](CO)[C@@H](c3ccc(/C=C/c4ccccc4)cc3)[C@@H]2C1,-1
COc1ccc(C#Cc2ccc([C@H]3[C@@H](CO)N4CCCCN(Cc5ccncc5)C[C@@H]34)cc2)cc1,-18.76

4 of the entries, repeated:

COc1cccc(-c2ccc3c(c2)[C@H]2[C@H](CCN2C(=O)Cc2ccncc2)[C@H](CO)N3)c1 read Gaussia minus Italica difference -17.92%.
COc1ccc(NC(=O)Nc2ccc3c(c2)[C@@H]2C[C@@H](CC(=O)N4CCc5ccccc5C4)O[C@H](CO)[C@@H]2O3)cc1 read Gaussia minus Italica difference -9.564%.
O=C(C[C@@H]1C[C@H]2c3cc(NC(=O)Nc4ccccc4F)ccc3O[C@H]2[C@H](CO)O1)NCc1ccc2c(c1)OCO2 read Gaussia minus Italica difference -24.37%.
CO[C@@H]1CN(C)C(=O)c2ccc(NC(=O)c3nc4ccccc4s3)cc2OC[C@@H](C)N(Cc2cccnc2)C[C@@H]1C read Gaussia minus Italica difference -10.37%.